In article PMC8718266:

B1: 3xFLAG-KLF2 wild-type [not stated] / FBW7 (endogenous, mESCs) [mouse (endogenous in mESCs)] (parent)
chain 1: MNQELLSVGSKRRRTGGSLRGNASSSQVDEGQMNRVVEEDPQQQARHQEEEHTARNGELVGANPRPGDQNDTQQGQVEENNNRFISVDEDSSGNQEEQEEDEEHAGEQEEEEEEEEEEEEMDQESDDFDPSDDSSREDEHTHNSNVTNCSSVSDLPAHQLSSPFYTKTTKMKRKLDHGSEVRSFSLGKKPCKVSDYTSTTGLVPCSATPTTFGDLRAANGQGQQRRRITSVQPPTGLQEWLKMFQSWSGPEKLLALDELIDSCEPTQVKHMMQVIEPQFQRDFISLLPKELALYVLSFLEPKDLLQAAQTCRYWRILAEDNLLWREKCKEEGIDEPLHIKRRKIIKPGFIHSPWKSAYIRQHRIDTNWRRGELKSPKVLKGHDDHVITCLQFCGNRIVSGSDDNTLKVWSAVTGKCLRTLVGHTGGVWSSQMRDNIIISGSTDRTLKVWNAETGECIHTLYGHTSTVRCMHLHEKRVVSGSRDATLRVWDIETGQCLHVLMGHVAAVRCVQYDGRRVVSGAYDFMVKVWDPETETCLHTLQGHTNRVYSLQFDGIHVVSGSLDTSIRVWDVETGNCIHTLTGHQSLTSGMELKDNILVSGNADSTVKIWDIKTGQCLQTLQGPSKHQSAVTCLQFNKNFVITSSDDGTVKLWDLKTGEFIRNLVTLESGGSGGVVWRIRASNTKLVCAVGSRNGTEETKLLVLDFDVDMK
chain 2: MALSEPILPSFATFASPCERGLQERWPRNEPEAGGTDEDLNNVLDFILSMGLDGLGAENPPEPPPQPPPPAFYYPEPGAPPPYSIPAASLGTELLRPDLDPPQGPALHGRFLLAPPGRLVKAEPPEVDGGGYGCAPGLAHGPRGLKLEGAPGATGACMRGPAGRPPPPPDTPPLSPDGPLRIPASGPRNPFPPPFGPGPSFGGPGPALHYGPPAPGAFGLFEDAAAAAAALGLAPPATRGLLTPPSSPLELLEAKPKRGRRSWPRKRAATHTCSYTNCGKTYTKSSHLKAHLRTHTGEKPYHCNWEGCGWKFARSDELTRHYRKHTGHRPFQCHLCDRAFSRSDHLALHMKRHM

Variants of: B1
Test: FLAG IP mass spectrometry (spectral counting)
Settings: with FBW7 (endogenous, mESCs) [mouse (endogenous in mESCs)]; Klf2+/+ mESCs; parent: 1; read off a plot

| ratio to parent | Variant |
| --- | --- |
| 9.6 | chain 2 T171A S175A T243A S247A |

Same assay, conditions: with FBW7 (endogenous, mESCs) [mouse (endogenous in mESCs)]; Klf2Δ/Δ mESCs; parent: 1; read off a plot

| ratio to parent | Variant |
| --- | --- |
| 13 | chain 2 T171A S175A T243A S247A |
